Source: ChEMBL document CHEMBL1130526, “Amide surrogates of matrix metalloproteinase inhibitors: Urea and sulfonamide mimics” (Bioorg Med Chem Lett, 1997)

Chains of the proteins cited; added tags and fusions are not shown. Lines headed by an entry give the natural chain unless they say otherwise; changes in a name come on top.
UniProt P08253: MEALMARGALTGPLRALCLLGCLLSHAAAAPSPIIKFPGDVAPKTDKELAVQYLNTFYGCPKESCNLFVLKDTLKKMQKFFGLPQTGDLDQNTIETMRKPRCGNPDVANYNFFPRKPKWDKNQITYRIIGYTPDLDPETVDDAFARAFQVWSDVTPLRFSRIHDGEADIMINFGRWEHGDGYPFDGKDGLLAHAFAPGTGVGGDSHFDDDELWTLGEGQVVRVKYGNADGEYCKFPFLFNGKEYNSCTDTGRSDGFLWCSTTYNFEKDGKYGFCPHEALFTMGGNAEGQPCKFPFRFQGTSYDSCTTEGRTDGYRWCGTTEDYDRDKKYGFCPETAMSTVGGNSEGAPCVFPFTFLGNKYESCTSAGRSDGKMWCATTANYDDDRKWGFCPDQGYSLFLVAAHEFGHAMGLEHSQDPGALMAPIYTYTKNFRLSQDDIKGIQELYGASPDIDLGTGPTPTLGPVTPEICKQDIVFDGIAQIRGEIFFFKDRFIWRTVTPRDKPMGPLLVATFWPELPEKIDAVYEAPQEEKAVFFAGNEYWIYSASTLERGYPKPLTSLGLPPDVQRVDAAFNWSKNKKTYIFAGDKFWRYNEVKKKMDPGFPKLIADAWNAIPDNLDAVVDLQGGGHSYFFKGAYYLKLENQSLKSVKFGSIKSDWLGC

Target: 72 kDa type IV collagenase (Homo sapiens, UniProt P08253)
Experiment: Inhibition of Matrix metalloprotease-2 (MMP-2)

Ki: < 0.01 µM
SMILES: CNC(=O)[C@H](Cc1ccc(OC)cc1)NC(=O)[C@@H](CC(=O)NO)CC(C)C
